The experiment deals with CGRP receptor (CALCRL:RAMP1) on CALCRL:RAMP1-CRE-bla Freestyle 293F cells (UniProt Q16602). Nature of the experiment: CRE-bla reporter assay on CALCRL:RAMP1 Freestyle 293F cells; binding inferred by the filing from receptor activation.

Amino acid sequences for entries named in this document (tags omitted). A change or cut given only in a name is not applied to a line headed by its entry.
UniProt Q16602: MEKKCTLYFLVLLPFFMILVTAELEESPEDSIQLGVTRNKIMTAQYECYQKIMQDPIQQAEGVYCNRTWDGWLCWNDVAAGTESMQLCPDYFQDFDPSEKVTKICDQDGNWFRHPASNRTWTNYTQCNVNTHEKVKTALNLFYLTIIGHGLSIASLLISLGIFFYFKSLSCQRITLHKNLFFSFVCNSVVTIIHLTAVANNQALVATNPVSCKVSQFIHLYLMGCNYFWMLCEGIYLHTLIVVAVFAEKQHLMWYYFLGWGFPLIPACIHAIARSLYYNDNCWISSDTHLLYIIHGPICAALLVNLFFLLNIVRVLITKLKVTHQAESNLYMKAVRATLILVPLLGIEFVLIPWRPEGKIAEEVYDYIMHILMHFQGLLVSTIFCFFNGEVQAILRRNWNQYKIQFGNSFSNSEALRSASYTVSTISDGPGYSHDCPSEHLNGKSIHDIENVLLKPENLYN

In patent US20160207975A1 (published 2016) one finds binding data, which are given here for one molecule.

Results are given in words; binding and its absence hold for the method and conditions named. Some entries that bind do so weakly or less than the wild type.

Take ACDTATCVLGRLSQELHRLQTYPRTNVGSKAF (C-terminal amide (-NH2)) [ACX017 (SEQ ID NO:1)]: the binding result is given as “binds”.
